Data published in the supplement of paper PMC10849652.
The other results are listed elsewhere or left out.

Amino acid sequences for entries named in this document (tags omitted). A change or cut given only in a name is not applied to a line headed by its entry.
UniProt P42356, whole entry, looked up: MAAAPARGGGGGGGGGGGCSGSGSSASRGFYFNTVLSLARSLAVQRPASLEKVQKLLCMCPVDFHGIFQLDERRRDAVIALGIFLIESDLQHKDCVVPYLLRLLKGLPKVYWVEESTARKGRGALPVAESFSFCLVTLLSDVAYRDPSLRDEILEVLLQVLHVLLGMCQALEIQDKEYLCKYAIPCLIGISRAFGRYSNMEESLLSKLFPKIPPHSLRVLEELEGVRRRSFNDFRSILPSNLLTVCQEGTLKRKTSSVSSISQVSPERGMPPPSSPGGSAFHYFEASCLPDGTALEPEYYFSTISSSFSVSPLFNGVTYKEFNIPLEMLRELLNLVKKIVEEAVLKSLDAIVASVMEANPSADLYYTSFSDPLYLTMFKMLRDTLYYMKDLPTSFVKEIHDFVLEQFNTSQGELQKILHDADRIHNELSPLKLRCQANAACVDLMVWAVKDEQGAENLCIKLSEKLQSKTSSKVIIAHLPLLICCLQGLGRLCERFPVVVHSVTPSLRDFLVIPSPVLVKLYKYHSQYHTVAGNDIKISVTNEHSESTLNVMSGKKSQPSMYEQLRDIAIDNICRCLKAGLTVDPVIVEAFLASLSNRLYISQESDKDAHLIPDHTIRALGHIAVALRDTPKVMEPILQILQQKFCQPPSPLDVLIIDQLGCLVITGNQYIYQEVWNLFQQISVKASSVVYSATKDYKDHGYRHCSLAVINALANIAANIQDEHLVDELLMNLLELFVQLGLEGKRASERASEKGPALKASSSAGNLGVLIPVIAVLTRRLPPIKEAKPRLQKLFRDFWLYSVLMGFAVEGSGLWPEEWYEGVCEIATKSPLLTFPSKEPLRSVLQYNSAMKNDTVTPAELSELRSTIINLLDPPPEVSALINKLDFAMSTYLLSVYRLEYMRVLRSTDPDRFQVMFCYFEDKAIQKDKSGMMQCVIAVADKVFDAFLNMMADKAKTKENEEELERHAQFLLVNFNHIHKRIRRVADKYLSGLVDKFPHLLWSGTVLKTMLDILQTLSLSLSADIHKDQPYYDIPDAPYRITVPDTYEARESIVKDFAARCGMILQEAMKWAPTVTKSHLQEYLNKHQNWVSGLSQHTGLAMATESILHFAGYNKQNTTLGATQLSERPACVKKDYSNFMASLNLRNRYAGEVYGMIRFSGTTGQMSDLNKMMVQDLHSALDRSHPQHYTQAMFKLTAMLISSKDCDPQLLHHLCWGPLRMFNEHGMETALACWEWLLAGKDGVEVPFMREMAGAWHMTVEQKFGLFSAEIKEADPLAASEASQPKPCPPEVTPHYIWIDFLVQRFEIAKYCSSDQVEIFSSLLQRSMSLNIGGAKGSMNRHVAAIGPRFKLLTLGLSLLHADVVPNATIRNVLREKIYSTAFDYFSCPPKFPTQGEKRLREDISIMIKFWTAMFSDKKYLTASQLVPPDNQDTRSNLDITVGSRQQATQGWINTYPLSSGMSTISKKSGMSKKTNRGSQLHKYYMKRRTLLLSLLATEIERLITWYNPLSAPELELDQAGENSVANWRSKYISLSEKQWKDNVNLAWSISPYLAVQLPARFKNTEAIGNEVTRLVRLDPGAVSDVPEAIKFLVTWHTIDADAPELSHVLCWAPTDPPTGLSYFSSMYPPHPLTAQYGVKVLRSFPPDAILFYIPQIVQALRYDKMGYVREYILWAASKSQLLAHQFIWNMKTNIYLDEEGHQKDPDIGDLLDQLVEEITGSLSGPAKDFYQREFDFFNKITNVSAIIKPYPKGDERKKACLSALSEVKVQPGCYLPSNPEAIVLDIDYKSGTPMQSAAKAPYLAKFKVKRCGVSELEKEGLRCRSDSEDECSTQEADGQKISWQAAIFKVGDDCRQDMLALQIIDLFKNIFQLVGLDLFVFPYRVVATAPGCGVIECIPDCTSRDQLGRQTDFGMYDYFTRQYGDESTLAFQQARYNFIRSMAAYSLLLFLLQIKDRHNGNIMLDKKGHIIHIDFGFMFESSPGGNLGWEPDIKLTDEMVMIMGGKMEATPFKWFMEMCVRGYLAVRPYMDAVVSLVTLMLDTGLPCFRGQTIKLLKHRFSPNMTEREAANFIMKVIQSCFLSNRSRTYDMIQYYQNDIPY
UniProt P07737, whole entry, looked up: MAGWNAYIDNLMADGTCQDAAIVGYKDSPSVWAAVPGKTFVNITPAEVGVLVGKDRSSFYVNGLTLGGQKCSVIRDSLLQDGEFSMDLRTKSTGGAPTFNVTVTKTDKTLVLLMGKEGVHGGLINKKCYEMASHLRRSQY
UniProt P27986, whole entry, looked up: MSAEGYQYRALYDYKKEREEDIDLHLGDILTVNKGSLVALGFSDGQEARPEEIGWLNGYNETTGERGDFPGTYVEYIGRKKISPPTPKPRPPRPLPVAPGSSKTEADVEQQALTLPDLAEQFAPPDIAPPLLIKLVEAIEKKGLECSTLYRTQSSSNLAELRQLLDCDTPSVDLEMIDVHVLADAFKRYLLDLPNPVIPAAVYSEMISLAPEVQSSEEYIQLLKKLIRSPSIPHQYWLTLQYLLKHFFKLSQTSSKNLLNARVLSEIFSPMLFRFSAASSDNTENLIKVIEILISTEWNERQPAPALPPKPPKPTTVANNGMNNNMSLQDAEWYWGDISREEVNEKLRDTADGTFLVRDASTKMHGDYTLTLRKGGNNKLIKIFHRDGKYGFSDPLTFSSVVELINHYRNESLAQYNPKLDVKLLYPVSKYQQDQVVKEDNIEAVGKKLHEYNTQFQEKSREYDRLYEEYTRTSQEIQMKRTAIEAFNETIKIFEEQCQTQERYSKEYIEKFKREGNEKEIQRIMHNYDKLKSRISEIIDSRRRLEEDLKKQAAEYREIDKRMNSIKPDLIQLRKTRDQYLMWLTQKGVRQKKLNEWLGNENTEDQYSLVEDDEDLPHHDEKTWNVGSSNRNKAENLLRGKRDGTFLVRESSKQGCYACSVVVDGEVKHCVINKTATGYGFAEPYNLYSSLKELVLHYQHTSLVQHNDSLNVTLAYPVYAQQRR
UniProt P42338: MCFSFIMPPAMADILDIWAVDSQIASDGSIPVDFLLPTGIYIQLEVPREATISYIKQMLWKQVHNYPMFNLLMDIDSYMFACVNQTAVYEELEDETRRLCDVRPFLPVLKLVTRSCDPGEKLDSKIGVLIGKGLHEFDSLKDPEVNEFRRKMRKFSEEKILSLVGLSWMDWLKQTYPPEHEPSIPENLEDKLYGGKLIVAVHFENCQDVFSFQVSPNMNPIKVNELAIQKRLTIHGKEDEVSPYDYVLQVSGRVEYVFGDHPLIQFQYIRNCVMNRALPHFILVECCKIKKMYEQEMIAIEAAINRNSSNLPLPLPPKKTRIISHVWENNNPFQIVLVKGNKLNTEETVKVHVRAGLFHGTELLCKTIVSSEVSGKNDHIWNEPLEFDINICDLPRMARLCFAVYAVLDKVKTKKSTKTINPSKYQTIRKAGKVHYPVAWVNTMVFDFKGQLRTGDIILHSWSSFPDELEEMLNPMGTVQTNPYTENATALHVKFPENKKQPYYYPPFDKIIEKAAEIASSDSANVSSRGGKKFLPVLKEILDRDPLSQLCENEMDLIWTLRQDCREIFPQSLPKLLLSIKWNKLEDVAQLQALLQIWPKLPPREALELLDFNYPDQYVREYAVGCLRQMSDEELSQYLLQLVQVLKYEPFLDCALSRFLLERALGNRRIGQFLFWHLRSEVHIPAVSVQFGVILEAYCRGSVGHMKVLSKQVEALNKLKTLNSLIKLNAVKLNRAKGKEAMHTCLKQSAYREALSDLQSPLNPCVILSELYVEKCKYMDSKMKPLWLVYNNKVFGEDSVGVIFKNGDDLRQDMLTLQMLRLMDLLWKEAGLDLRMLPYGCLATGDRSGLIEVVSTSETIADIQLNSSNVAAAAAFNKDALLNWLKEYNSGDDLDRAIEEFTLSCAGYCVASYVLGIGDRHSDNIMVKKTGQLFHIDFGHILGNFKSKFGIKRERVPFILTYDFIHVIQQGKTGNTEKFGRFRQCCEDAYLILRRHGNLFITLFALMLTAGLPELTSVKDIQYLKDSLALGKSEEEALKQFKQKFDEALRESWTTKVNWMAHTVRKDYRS
UniProt P17858: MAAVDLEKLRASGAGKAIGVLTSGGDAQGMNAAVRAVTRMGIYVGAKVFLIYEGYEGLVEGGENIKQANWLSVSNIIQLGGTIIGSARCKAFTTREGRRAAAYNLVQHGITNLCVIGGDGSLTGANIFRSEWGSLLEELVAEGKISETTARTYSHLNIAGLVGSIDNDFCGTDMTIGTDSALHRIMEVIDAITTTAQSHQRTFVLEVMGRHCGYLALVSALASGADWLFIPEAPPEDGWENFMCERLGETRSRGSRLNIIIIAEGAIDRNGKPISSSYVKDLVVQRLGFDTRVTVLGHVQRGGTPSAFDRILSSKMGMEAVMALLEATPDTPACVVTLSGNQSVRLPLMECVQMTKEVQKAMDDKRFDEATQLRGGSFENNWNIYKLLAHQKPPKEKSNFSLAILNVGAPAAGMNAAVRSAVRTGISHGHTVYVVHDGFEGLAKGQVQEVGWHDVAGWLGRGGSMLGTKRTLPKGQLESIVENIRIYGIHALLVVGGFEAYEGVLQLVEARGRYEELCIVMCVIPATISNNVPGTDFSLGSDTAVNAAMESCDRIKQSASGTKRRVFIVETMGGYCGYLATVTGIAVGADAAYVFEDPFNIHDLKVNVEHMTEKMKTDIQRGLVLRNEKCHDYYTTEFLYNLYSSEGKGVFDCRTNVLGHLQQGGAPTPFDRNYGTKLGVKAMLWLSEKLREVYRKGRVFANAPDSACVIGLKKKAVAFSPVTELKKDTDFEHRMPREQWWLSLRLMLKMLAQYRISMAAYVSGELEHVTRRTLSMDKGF
UniProt Q9BZM1: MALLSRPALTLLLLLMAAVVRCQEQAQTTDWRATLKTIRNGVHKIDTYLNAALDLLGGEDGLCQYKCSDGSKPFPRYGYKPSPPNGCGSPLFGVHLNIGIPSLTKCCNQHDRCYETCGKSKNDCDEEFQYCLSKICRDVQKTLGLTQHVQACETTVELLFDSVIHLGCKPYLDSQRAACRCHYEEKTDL
UniProt P53609, whole entry, looked up: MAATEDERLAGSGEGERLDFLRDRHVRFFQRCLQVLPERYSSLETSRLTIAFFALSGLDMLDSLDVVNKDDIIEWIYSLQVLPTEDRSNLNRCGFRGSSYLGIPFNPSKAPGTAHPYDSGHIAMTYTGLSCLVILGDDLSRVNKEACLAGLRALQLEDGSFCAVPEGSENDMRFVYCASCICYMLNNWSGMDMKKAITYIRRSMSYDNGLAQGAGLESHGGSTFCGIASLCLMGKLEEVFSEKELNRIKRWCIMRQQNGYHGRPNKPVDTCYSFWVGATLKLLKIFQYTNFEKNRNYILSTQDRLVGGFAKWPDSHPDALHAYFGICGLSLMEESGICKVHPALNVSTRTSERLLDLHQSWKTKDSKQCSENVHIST
UniProt O95427: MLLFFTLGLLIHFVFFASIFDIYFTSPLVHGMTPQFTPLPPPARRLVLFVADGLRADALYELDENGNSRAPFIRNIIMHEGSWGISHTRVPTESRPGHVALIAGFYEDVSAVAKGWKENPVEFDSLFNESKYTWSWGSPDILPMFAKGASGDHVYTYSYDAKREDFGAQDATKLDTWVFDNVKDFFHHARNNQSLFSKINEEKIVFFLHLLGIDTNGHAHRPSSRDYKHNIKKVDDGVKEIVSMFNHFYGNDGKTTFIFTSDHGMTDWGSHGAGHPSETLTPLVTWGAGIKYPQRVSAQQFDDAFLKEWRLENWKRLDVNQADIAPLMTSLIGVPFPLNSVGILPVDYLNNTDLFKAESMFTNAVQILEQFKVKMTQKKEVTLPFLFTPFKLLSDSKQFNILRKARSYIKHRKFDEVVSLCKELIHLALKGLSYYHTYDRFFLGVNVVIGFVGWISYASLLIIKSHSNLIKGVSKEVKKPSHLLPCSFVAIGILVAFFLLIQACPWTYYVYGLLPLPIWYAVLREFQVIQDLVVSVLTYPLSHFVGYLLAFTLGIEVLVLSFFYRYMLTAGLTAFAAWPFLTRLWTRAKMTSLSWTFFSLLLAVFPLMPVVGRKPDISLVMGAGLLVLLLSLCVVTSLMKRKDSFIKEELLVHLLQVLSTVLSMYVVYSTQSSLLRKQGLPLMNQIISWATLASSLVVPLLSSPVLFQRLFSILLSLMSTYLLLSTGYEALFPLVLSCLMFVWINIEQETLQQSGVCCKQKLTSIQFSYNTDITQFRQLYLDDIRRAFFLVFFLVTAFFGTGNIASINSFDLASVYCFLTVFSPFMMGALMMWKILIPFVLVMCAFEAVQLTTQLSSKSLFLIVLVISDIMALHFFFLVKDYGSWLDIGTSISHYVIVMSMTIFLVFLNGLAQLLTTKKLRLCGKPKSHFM
UniProt Q14442: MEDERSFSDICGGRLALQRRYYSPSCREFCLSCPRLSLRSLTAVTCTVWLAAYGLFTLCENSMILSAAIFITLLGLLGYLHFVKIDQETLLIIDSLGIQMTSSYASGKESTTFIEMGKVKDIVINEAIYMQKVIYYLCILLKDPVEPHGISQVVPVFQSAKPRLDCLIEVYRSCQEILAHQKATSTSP

Key:
Assay in all cases: log2 fold change, soluble protein after heating vs DMSO (PISA); higher = thermal stabilisation; K562 cells, 10 uM, 30 min; active = over 0.2 and 3.5 SD of the protein, either way, in both replicates (recomputed)
[1] = compound: CC[C@@H]1C(=O)N(C)c2cnc(Nc3ccc(C(=O)NC4CCN(C)CC4)cc3OC)nc2N1C1CCCC1
Summary of the method: (§1)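 Aliquots of K562 cells (2×10^6 cells/mL) treated with 10 μM compound for 30 min were heated for 3 min over 48°C-58°C. After pooling and extraction in PBS with 0.5% NP-40 at 4°C, soluble protein from a 21,000xg, 90 min spin was quantified by TMTpro 16plex LC-MS/MS with channel sums equalised. Thermal stability is expressed against control samples, from duplicates, as a log2 fold change.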

volasertib = compound: CC[C@@H]1C(=O)N(C)c2cnc(Nc3ccc(C(=O)N[C@H]4CC[C@H](N5CCN(CC6CC6)CC5)CC4)cc3OC)nc2N1C(C)C [volasertib]
Summary of the method: as §1

[2] = compound: CC[C@H](C)N1C=C(C2=C(C=C(C=C21)C3=CN=C(C=C3)N4CCNCC4)C(=O)NCC5=C(C=C(NC5=O)C)C)C
Summary of the method: as §1

epoxomicin = compound: CC[C@H](C)[C@@H](C(=O)N[C@@H]([C@@H](C)O)C(=O)N[C@@H](CC(C)C)C(=O)[C@]1(CO1)C)NC(=O)[C@H]([C@@H](C)CC)N(C)C(=O)C [epoxomicin]
Summary of the method: as §1

[3] = compound: CCn1c(C(=O)N(C2CC2)C2CC2)cc2c3c(ncn3C)c(Nc3cc(C)n(C)n3)nc21
Summary of the method: as §1

[4] = compound: CCn1cc(-c2ccnc3[nH]c(-c4cccc(CN(C)C)c4)cc23)c(-c2ccc(NC(=O)N(C)C)cc2)n1
Summary of the method: as §1

[5] = compound: CN(C)CC(=O)Nc1ccc2[nH]c(=O)c3ccccc3c2c1
Summary of the method: as §1

rosiglitazone = compound: CN(CCOC1=CC=C(C=C1)C[C@H]2C(=O)NC(=O)S2)C3=CC=CC=N3 (racemic) [rosiglitazone]
Summary of the method: as §1

[6] = compound: CN1C2=C(C3=C1C(=O)N(N=C3)CC4=CC(=CC=C4)N)SC(=C2)S(=O)C
Summary of the method: as §1

[7] = compound: CN1CCC(CNc2ccc3ncc(-c4cccc(OC(F)(F)F)c4)n3n2)CC1
Summary of the method: as §1

Target | log2 fold change [1] | log2 fold change (volasertib) | log2 fold change [2] | log2 fold change (epoxomicin) | log2 fold change [3] | log2 fold change [4] | log2 fold change [5] | log2 fold change (rosiglitazone) | log2 fold change [6] | log2 fold change [7]
PHB2 (UniProt Q99623) | inactive: -0.005 | inactive: 0.059 | inactive: -0.035 | inactive: 0.012 | inactive: 0.041 | inactive: 0.031 | inactive: -0.032 | inactive: -0.001 | inactive: -0.038 | inactive: 0.046
PLAA (UniProt Q9Y263) | inactive: -0.013 | inactive: -0.149 | inactive: 0.06 | inactive: 0.103 | inactive: -0.031 | inactive: -0.046 | inactive: 0.068 | inactive: 0.036 | inactive: -0.064 | inactive: -0.043
PI4KA (UniProt P42356) | inactive: 0.082 | inactive: -0.173 | inactive: -0.019 | inactive: -0.072 | inactive: -0.078 | inactive: -0.024 | inactive: -0.028 | inactive: 0.015 | inactive: 0.123 | inactive: 0.179
PHKA2 (UniProt P46019) | inactive: -0.049 | inactive: -0.094 | inactive: -0.174 | inactive: 0.071 | – | inactive: -0.029 | inactive: 0.01 | – | inactive: -0.002 | active: -0.35
PFKM isoform 3 (UniProt P08237) | inactive: 0.016 | inactive: 0.012 | inactive: -0.008 | inactive: 0.008 | inactive: 0.007 | inactive: -0.002 | inactive: -0.017 | inactive: -0.001 | inactive: -0.048 | inactive: -0.044
PFN1 (UniProt P07737) | inactive: -0.026 | inactive: -0.001 | inactive: 0.009 | inactive: 0.049 | inactive: 0.018 | inactive: 0.015 | inactive: -0.095 | inactive: -0.009 | inactive: -0.09 | inactive: -0.006
PHF5A (UniProt Q7RTV0) | inactive: 0.013 | inactive: 0.065 | inactive: -0.061 | inactive: 0.051 | – | inactive: 0.087 | inactive: -0.063 | – | inactive: -0.017 | inactive: 0.017
PGAM5 (UniProt Q96HS1) | inactive: 0.177 | inactive: 0.123 | inactive: 0.001 | inactive: -0.074 | inactive: -0.037 | inactive: -0.009 | inactive: 0 | inactive: -0.02 | inactive: 0.146 | inactive: 0.148
PGGHG (UniProt Q32M88) | inactive: 0.012 | inactive: 0.098 | inactive: 0.051 | inactive: 0.011 | – | inactive: -0.025 | inactive: 0.069 | – | inactive: -0.025 | inactive: -0.096
PIH1D1 (UniProt Q9NWS0) | inactive: 0.05 | inactive: -0.007 | inactive: -0.015 | inactive: 0.026 | inactive: -0.021 | inactive: -0.032 | inactive: 0.085 | inactive: 0.036 | inactive: -0.025 | inactive: -0.003
PGP (UniProt A6NDG6) | inactive: 0.023 | inactive: 0.025 | inactive: -0.036 | inactive: 0.018 | inactive: 0.021 | inactive: -0.031 | inactive: -0.01 | inactive: 0.03 | inactive: -0.033 | inactive: -0.011
PIK3R1 (UniProt P27986) | inactive: -0.04 | inactive: -0.142 | inactive: -0.018 | inactive: 0.036 | – | inactive: -0.072 | inactive: -0.002 | – | inactive: -0.064 | inactive: 0.127
PIK3CB (UniProt P42338) | inactive: 0.017 | active: -0.224 | inactive: 0.082 | inactive: 0.033 | – | inactive: -0.071 | inactive: 0.008 | – | inactive: 0.003 | inactive: 0.175
PFKL isoform 2 (UniProt P17858) | inactive: 0.036 | inactive: -0.015 | inactive: -0.002 | inactive: -0.012 | inactive: 0.029 | inactive: 0 | inactive: -0.01 | inactive: 0.007 | inactive: -0.089 | inactive: -0.047
PFDN5 (UniProt Q99471) | inactive: 0.06 | inactive: 0.007 | inactive: -0.012 | inactive: 0.158 | inactive: 0.015 | inactive: -0.06 | inactive: 0.023 | inactive: -0.018 | inactive: -0.112 | inactive: 0.285
PIP (UniProt P12273) | inactive: -0.314 | inactive: -0.305 | inactive: 0.527 | inactive: 0.924 | inactive: 0.111 | inactive: 0.124 | inactive: 0.241 | inactive: 0.23 | inactive: 0.497 | inactive: -0.079
PGRMC2 isoform 2 (UniProt O15173) | inactive: -0.053 | inactive: -0.012 | inactive: -0.01 | inactive: 0.049 | inactive: 0.016 | inactive: -0.039 | inactive: -0.005 | inactive: -0.028 | inactive: -0.036 | inactive: 0.134
PITRM1 isoform 2 (UniProt Q5JRX3) | inactive: 0.048 | active: 0.489 | inactive: 0.166 | inactive: -0.029 | – | inactive: -0.084 | inactive: 0.023 | – | inactive: -0.124 | inactive: -0.189
PIEZO1 (UniProt Q92508) | inactive: 0.03 | inactive: -0.015 | inactive: -0.03 | inactive: 0.035 | inactive: -0.007 | inactive: -0.024 | inactive: 0 | inactive: -0.027 | inactive: -0.03 | inactive: -0.021
PEX3 (UniProt P56589) | inactive: 0.135 | inactive: -0.189 | inactive: -0.05 | inactive: -0.043 | inactive: -0.104 | – | inactive: 0.063 | – | inactive: 0.076 | –
PFAS (UniProt O15067) | inactive: -0.04 | inactive: -0.124 | inactive: 0.113 | inactive: -0.016 | – | inactive: -0.069 | inactive: 0.031 | – | inactive: -0.241 | inactive: -0.001
PIR (UniProt O00625) | inactive: -0.041 | inactive: -0.069 | inactive: -0.028 | inactive: 0.034 | – | inactive: -0.006 | inactive: 0.031 | – | inactive: -0.06 | inactive: -0.052
PLA2G12A (UniProt Q9BZM1) | inactive: -0.081 | inactive: -0.191 | inactive: 0.111 | inactive: -0.122 | inactive: -0.028 | inactive: -0.056 | – | inactive: 0.169 | inactive: 0.046 | inactive: -0.122
PGK2 (UniProt P07205) | inactive: 0.054 | inactive: 0.123 | inactive: -0.028 | inactive: -0.037 | – | inactive: 0.123 | inactive: -0.112 | – | inactive: -0.059 | inactive: 0.06
PIK3CD (UniProt O00329) | inactive: -0.069 | inactive: -0.036 | – | inactive: -0.076 | – | – | inactive: -0.059 | – | inactive: 0 | –
PLBD1 (UniProt Q6P4A8) | inactive: -0.063 | inactive: -0.076 | inactive: -0.022 | inactive: -0.016 | – | inactive: -0.028 | inactive: 0.088 | – | inactive: -0.01 | active: -0.352
PGGT1B (UniProt P53609) | inactive: 0.056 | inactive: 0.098 | inactive: 0.004 | inactive: -0.011 | – | inactive: -0.026 | inactive: -0.009 | – | inactive: -0.101 | inactive: -0.008
PFN1 (UniProt I3L3D5) | inactive: 0.027 | inactive: 0.105 | – | inactive: -0.151 | inactive: -0.242 | inactive: -0.078 | – | inactive: -0.067 | – | inactive: -0.192
PIGN (UniProt O95427) | inactive: 0.168 | inactive: -0.075 | inactive: 0.003 | inactive: 0.068 | – | inactive: 0.115 | – | inactive: -0.12 | inactive: 0.143 | inactive: -0.194
PIGH (UniProt Q14442) | inactive: 0.06 | inactive: -0.008 | – | inactive: -0.128 | – | inactive: -0.038 | inactive: 0.013 | – | inactive: 0.115 | inactive: 0.051

Given as tab-separated lines: entries from further up
Target	log2 fold change [1]	log2 fold change (volasertib)	log2 fold change [2]	log2 fold change (epoxomicin)	log2 fold change [3]	log2 fold change [4]	log2 fold change [5]	log2 fold change (rosiglitazone)	log2 fold change [6]	log2 fold change [7]
PGK2 (UniProt P07205)	inactive: 0.054	inactive: 0.123	inactive: -0.028	inactive: -0.037	–	inactive: 0.123	inactive: -0.112	–	inactive: -0.059	inactive: 0.06
PIK3CD (UniProt O00329)	inactive: -0.069	inactive: -0.036	–	inactive: -0.076	–	–	inactive: -0.059	–	inactive: 0	–
